Measured values: PubChem BioAssay AID493014 (National Center for Advancing Translational Sciences (NCATS), 2011)
The list shows a part of the results. These are further read-outs of the screen, such as a control signal, another cell line or another target. No call is given for them. The list favours compounds with an active or inconclusive main result. The note in brackets gives the kind of curve behind each potency; many fits are weak.

Test: qHTS Assay to Find Inhibitors of Chronic Active B-Cell Receptor Signaling
Conditions: ABC-DLBCL IkBa-CBG/CBR reporter, luminescence ratio (green luciferase fused to IkBa over red control in TMD8 lymphoma cells), 4 h
Method in brief: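 TMD8 ABC-DLBCL cells carrying doxycycline-inducible green luciferase fused to IkappaBalpha plus unfused red luciferase were exposed to compounds (up to 46 uM) for 4 hrs at 37C. Activity came from the overlap-corrected green/red luminescence ratio.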

[1] = measured here: CBR red luminescence, cell number
[2] = measured here: IkBa-CBG green luminescence

Row | Structure (SMILES) | AC50 [1] | AC50 [2]
1 | Oc1ccc(-c2nnc(-c3ccc(O)cc3)nn2)cc1 | 0.0517 µM [falling, full curve] | 0.0184 µM [rising, full curve]
2 | O=C(CSc1ccc(Cl)cc1)Nc1ccccc1N1CCN(C(=O)c2ccc(Cl)cc2)CC1 | 8.2 µM [falling, partial curve, poor fit] | –
3 | C(C#CCCCCCCCCC[n+]1ccccc1)#CCCCCCCCCC[n+]1ccccc1 | 35.5 µM [falling, single point] | –
4 | CC1=NN(C(=O)c2ccc(Cn3cc(Br)c([N+](=O)[O-])n3)o2)C(O)(C(F)(F)F)C1 (stereo unspecified) | 25.9 µM [falling, single point] | –
5 | CC1(C)CC(=O)C2=C(C1)N(c1ccc(F)cc1)C(=O)CC2c1ccsc1 (stereo unspecified) | 6.51 µM [falling, partial curve, poor fit] | –
6 | CC(=O)c1ccc(N2CCC(c3cc(-c4ccc(Cl)cc4)n[nH]3)CC2)c([N+](=O)[O-])c1 | 20 µM [falling, single point] | –
7 | CCCOc1ccc(C(=O)Nc2ccc(Cl)cn2)cc1 | 29.1 µM [falling, single point] | –
8 | CCOc1ccc(S(=O)(=O)N2CCN(C(=O)c3cccn3C)CC2)cc1 | 0.103 µM [falling, full curve, poor fit] | –
9 | O=C(Cc1cccc2ccccc12)Nc1ccc(N2CCOCC2)cc1 | 5.62 µM [rising, partial curve, poor fit] | –
10 | CCc1ccccc1NC(=O)c1ccc(OCc2c(C)noc2C)cc1 | – | 13 µM [falling, partial curve, poor fit]
11 | COc1cccc(C(=O)Nc2nnc(S(=O)(=O)Nc3cccc(C)c3)s2)c1 | 35.5 µM [falling, single point] | –
12 | CCc1c(C)nc2cc(-c3cccs3)[nH]n2c1=O | 14.6 µM [rising, partial curve, poor fit] | –
13 | O=C(NNC1=C(C(=O)C(F)(F)F)CCC1)c1cccnc1 | 11.2 µM [falling, partial curve] | –
14 | CCN1C=C(Cc2ccc(OC)cc2)C2=C(C1)C(c1ccc(OC)cc1)C(C#N)=C(N)O2 (stereo unspecified) | 3.98 µM [falling, partial curve] | –
15 | O=C(CCC(=O)N1CCOCC1)Nc1nnc(C2CCCCC2)s1 | 8.2 µM [rising, partial curve, poor fit] | –
16 | O=C(NC[C@@H]1CC[C@@H](Cc2ccc(-c3ccccc3)cc2)O1)Nc1ccc(Br)cc1 | 16.4 µM [rising, partial curve] | –
17 | O=C1CN(C(=O)c2ccccc2F)C(c2ccccc2)c2cc(F)ccc2N1 (stereo unspecified) | 25.1 µM [falling, single point] | –
18 | CCCc1nnc2n1N=C(c1ccc(-c3cc(Cl)ccc3Cl)o1)CS2 | 16.4 µM [falling, single point] | –
19 | CNc1c(NC(=O)COc2ccc(Cl)cc2)c(=O)oc2ccccc12 | 35.5 µM [falling, single point] | –
20 | CCS(=O)(=O)N1Cc2ccccc2CC1C(=O)Nc1cccc(OC)c1 (stereo unspecified) | 4.47 µM [falling, full curve, poor fit] | –
21 | CNc1ccc(Br)cc(C(=O)/C=C/c2cc(OC)ccc2OC)c1=O | 0.164 µM [falling, full curve, poor fit] | –

4 of the compounds above, tab-delimited:
Row	Structure (SMILES)	AC50 [1]	AC50 [2]
1	Oc1ccc(-c2nnc(-c3ccc(O)cc3)nn2)cc1	0.0517 µM [falling, full curve]	0.0184 µM [rising, full curve]
7	CCCOc1ccc(C(=O)Nc2ccc(Cl)cn2)cc1	29.1 µM [falling, single point]	–
8	CCOc1ccc(S(=O)(=O)N2CCN(C(=O)c3cccn3C)CC2)cc1	0.103 µM [falling, full curve, poor fit]	–
21	CNc1ccc(Br)cc(C(=O)/C=C/c2cc(OC)ccc2OC)c1=O	0.164 µM [falling, full curve, poor fit]	–

Later entries:

Row | Structure (SMILES) | AC50 [1] | AC50 [2]
22 | O=S(=O)(Nc1ccccc1C(F)(F)F)c1ccc(-c2ccccn2)s1 | 2.82 µM [falling, single point] | –
23 | COc1cc(C(=O)Nc2cc(S(C)(=O)=O)ccc2Cl)ccc1OCC(=O)N1CCOCC1 | 25.9 µM [falling, single point] | –
24 | O=C(O)c1cccc(Nc2ccc([N+](=O)[O-])cn2)c1 | 14.1 µM [falling, single point] | –
25 | Cc1cc2c(c(=O)o1)C(c1cccs1)C(C#N)=C(N)O2 (stereo unspecified) | 9.2 µM [falling, partial curve, poor fit] | –
26 | Cc1ccccc1Nc1nc(Cl)c(C=O)s1 | 1.41 µM [falling, full curve] | –
27 | COc1ccccc1CNC(=O)c1ccc2ccccc2n1 | 3.98 µM [falling, partial curve, poor fit] | –
28 | O=C1NN(c2ccccc2)C(=O)/C1=C\c1coc2ccc(O)cc2c1=O | 10 µM [falling, single point] | –
29 | Cc1ccc(Oc2nc3ccccn3c(=O)c2/C=C(\C#N)C(=O)NC2CCS(=O)(=O)C2)c(C)c1 (stereo unspecified) | 11.2 µM [falling, partial curve] | –
30 | Cc1nc(N)c(C#N)c(-c2ccccc2)c1C | 0.398 µM [falling, full curve] | –
31 | S=C(NCc1ccc(Cl)cc1)NCc1ccco1 | 0.316 µM [rising, full curve, poor fit] | –
32 | COC(=O)c1sccc1NC(=S)Nc1ccc(C)cc1 | 20 µM [falling, partial curve, poor fit] | –
33 | Cc1ccc2cc3c(nc2c1)OCC3 | 6.31 µM [rising, single point] | –
34 | CNc1nc(-c2c(C)[nH]c3ccc(OC)cc23)cs1 | 14.1 µM [rising, single point] | –
35 | Cc1ccc(-c2nnc(-c3ccc(Br)cc3)o2)o1 | 16.4 µM [rising, partial curve, poor fit] | –
36 | O=C(COC(=O)Cc1ccccc1F)NCCNC(=O)COC(=O)Cc1ccccc1F | 32.6 µM [rising, partial curve, poor fit] | –
37 | COc1ccc(NC(=O)N/C=C/c2ccccc2)cc1 | 1.41 µM [rising, partial curve, poor fit] | –
38 | Cn1c(SCC(=O)Nc2sccc2C#N)nnc1-c1ccccc1 | 6.51 µM [rising, single point] | –
39 | Cc1cc(C)c2nc(N3CCC(C(=O)NCCCN4CC(C)CC(C)C4)CC3)sc2c1 (stereo unspecified) | 15.8 µM [falling, partial curve, poor fit] | –
40 | NC(N)=N/N=C/c1ccc(OS(=O)(=O)c2ccccc2)cc1 | 15.8 µM [falling, single point] | –
41 | Cc1cccc(NC(=O)C2CCCN(S(=O)(=O)c3cccc4nsnc34)C2)n1 (stereo unspecified) | 3.66 µM [rising, single point] | –
42 | O=C1C2C3C=CC(C3)C2C(=O)N1CC1CCCO1 (stereo unspecified) | 1.64 µM [rising, partial curve, poor fit] | –

Row | Structure (SMILES) | AC50 [1] | AC50 [2]
43 | CCC1CCCCN1CCCNC(=O)CN1C(=O)CSc2ccc(S(=O)(=O)N3CCC(C)CC3)cc21 (stereo unspecified) | 35.5 µM [falling, single point] | –
44 | O=C(Oc1c(CN2CCOCC2)cc(Cl)c2cccnc12)c1ccccc1 | 14.1 µM [rising, single point] | 4.47 µM [falling, single point]
45 | COc1ccccc1OCCNS(=O)(=O)c1ccc2oc3ccccc3c2c1 | 8.2 µM [falling, partial curve] | –
46 | CCn1ncc(C2=NOC(C(=O)NCc3ccccc3)C2)c1C (stereo unspecified) | 14.6 µM [rising, partial curve, poor fit] | 11.6 µM [falling, partial curve]
47 | COc1ccc(C(=O)N/C(=C\c2cccc([N+](=O)[O-])c2)C(=O)Nc2cccc(C(=O)O)c2)cc1 | 3.55 µM [rising, full curve, poor fit] | –
48 | Nc1ccc(C(=O)Oc2ccc([N+](=O)[O-])cc2)cc1 | 25.1 µM [rising, partial curve, poor fit] | –
49 | Clc1ccc2c(N/N=C/c3ccc(Br)cc3)ccnc2c1 | 6.51 µM [rising, single point] | –
50 | CC(C)(C)OC(=O)CNC(=O)c1[nH]cnc1C(=O)N[C@@H](Cc1ccccc1)C(=O)OCc1ccccc1 | 5.62 µM [falling, single point] | –
51 | NCCOc1ccccc1Cc1ccccc1 | 23.1 µM [falling, single point] | –
52 | COc1ccc(C(=O)NCC(=O)NCC(=O)OCc2ccc(Br)cc2)cc1 | 7.94 µM [rising, partial curve, poor fit] | –
53 | Cc1ccccc1NC(=O)Cc1c[nH]c2ccccc12 | 3.16 µM [falling, partial curve, poor fit] | –
54 | Cc1cc(O)c(C(C)C)cc1N=Cc1ccccc1O | 3.98 µM [falling, partial curve] | –
55 | Cc1ccc(-c2csc(NC(=O)C3CCN(S(=O)(=O)c4cccs4)CC3)n2)cc1 | 7.31 µM [falling, partial curve] | –
56 | COc1ccc(OC)c(C(O)c2coc3ccc(O)c(CN(C)C)c23)c1 (stereo unspecified) | 29.1 µM [falling, single point] | –
57 | CCCC(O)(c1ccc(Cl)cc1)C(CN1CCOCC1)c1ccc(Cl)cc1 (stereo unspecified) | 35.5 µM [falling, single point] | –
58 | COc1ccc(NC(=O)N(C)C[C@H]2Oc3ccc(NS(=O)(=O)c4ccc(F)cc4)cc3C(=O)N([C@H](C)CO)C[C@@H]2C)cc1 | 29.1 µM [rising, single point] | –
59 | Cc1ccc2c(c1)N(CC(=O)N1CCCC1)C(=O)c1cccnc1O2 | 6.31 µM [falling, single point] | –
60 | COC(=O)/C=c1\sc2ncnn2c1=O | 29.1 µM [falling, partial curve, poor fit] | –
61 | O=C(COc1ccc(Cl)cc1Cl)NCCCCc1ccccc1 | 15.8 µM [rising, single point] | –
62 | CCN(CC)c1ccc(N2C(=O)CSC2=S)cc1 | 5.62 µM [rising, full curve, poor fit] | –
63 | N#Cc1ccc(-c2ccc(Cl)cc2)nc1SCC(=O)c1cccc(Cl)c1 | 0.82 µM [falling, full curve, poor fit] | –
